PubChem BioAssay AID1259424, University of Nebraska Medical Center – 2018
The whole screen tested about 14,000 reagents; below is a part drawn at random. 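Higher correlation or smaller distance means closer resemblance to KSR1 loss; control wells, including KSR1 knockdowns, recur on many plates.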 Further read-outs or replicates are left out here. Reagent sequences are not shown. Not stated in the record: the time to read-out.

Assay: 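Seek colon cancer survival genes behaving like KSR1, using a six-gene signature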 (primary screen)
Cell system: human HCT116 colon cancer cells
Reagent: siRNA pool against human genes, 50 nM
Measured: 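Six signature mRNAs by branched-DNA multiplex assay, scaled to two housekeeping genes and non-targeting median, log2; matched to mean KSR1 knockdown profile by Pearson correlation and euclidean distance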
Reading the numbers: mean correlation with KSR1 profile: higher = expression change more like KSR1 knockdown

| gene | mean correlation with KSR1 profile |
| --- | --- |
| SDF4 (stromal cell derived factor 4) | -0.601 |
| RHOXF2 (Rhox homeobox family member 2) | 0.842 |
| TIMM17B (translocase of inner mitochondrial membrane 17B) | 0.32 |
| CHFR (checkpoint with forkhead and ring finger domains) | -0.148 |
| TMEM248 (transmembrane protein 248) | -0.244 |
| ABCA1 (ATP binding cassette subfamily A member 1) | -0.29 |
| B3GAT3 (beta-1,3-glucuronyltransferase 3) | -0.697 |
| PPP6R3 (protein phosphatase 6 regulatory subunit 3) | -0.211 |
| MAT2B (methionine adenosyltransferase 2 non-catalytic beta subunit) | -0.632 |
| BCL2L11 (BCL2 like 11) | -0.633 |

Reprinted from the entries so far for reference:
| gene | mean correlation with KSR1 profile |
| --- | --- |
| TMEM248 (transmembrane protein 248) | -0.244 |
| ABCA1 (ATP binding cassette subfamily A member 1) | -0.29 |

The list goes on.
| gene | mean correlation with KSR1 profile |
| --- | --- |
| WSB1 (WD repeat and SOCS box containing 1) | -0.137 |
| NKD2 (NKD inhibitor of Wnt signaling pathway 2) | 0.378 |
| ZNF460 (zinc finger protein 460) | -0.32 |
| CD53 (CD53 molecule) | -0.254 |
| NPTN (neuroplastin) | -0.484 |
| RAB24 (RAB24, member RAS oncogene family) | 0.204 |
| EPS8 (EGFR pathway substrate 8, signaling adaptor) | -0.298 |
| WNT3A (Wnt family member 3A) | -0.239 |
| C21orf91 (chromosome 21 open reading frame 91) | -0.711 |
| PRDX5 (peroxiredoxin 5) | 0.0125 |
